The assay has as its system RAW 264.7. As to the kind of experiment: cell viability (MTT) relative to vehicle control; higher = more viable cells. The settings on record: stimulus: HMGB1 5 ug/ml, 18 h.
Setting [1] is: compound concentration: 1 ug/ml.

The structures appear in SMILES notation. Values joined by “and” are separate entries in the source; they are usually repeats but may differ in a detail not shown here. Identical values can stand only once. Counter-ions that a name gives are not always drawn. ± gives the standard deviation of the averaged measurements. This is one part of the list. Many values rest on one well or one pass, so single values are uncertain.

The text below walks through data of the supplement of paper PMC3682954.

One may read the cell viability as a read-out of living cells in per cent, often relative to untreated cells.

On to `CN(C)C/C=C(/c1ccc(Br)cc1)c1cccnc1` [Zimelidine dihydrochloride monohydrate], for which the cell viability (compound concentration: 3 uM) turned out to be 100%.

`CN(C)C/C=C(/c1ccc(Br)cc1)c1cccnc1` [Zimelidine dihydrochloride]: the cell viability (compound concentration: 3 uM) came to 105%.

Regarding `CC(C)(CO)C(O)C(=O)NCCCO` (centres undefined) [Panthenol (D)], the cell viability (compound concentration: 3 uM) came to 107%.

As for `CC(C)(CO)C(O)C(=O)NCCCO` (centres undefined), the cell viability (compound concentration: 3 uM) is 107%.

Regarding `NCCCNCCCCNCCCN` [Spermine tetrahydrochloride], the cell viability (compound concentration: 3 uM) amounted to 116%.

For `CCN(CC)CCNC(=O)c1cc(Cl)c(N)cc1OC` [Metoclopramide hydrochloride], the cell viability (compound concentration: 3 uM) worked out at 99.8%.

On to `CCN(CC)CCNC(=O)c1cc(Cl)c(N)cc1OC` [Metoclopramide monohydrochloride], for which the cell viability (compound concentration: 3 uM) was 94.6%.

For `CCN(CC)CCNC(=O)c1cc(Cl)c(N)cc1OC` [Metoclopramide], the cell viability (compound concentration: 3 uM) turned out to be 110%.

In the case of `CCN(CC)CCNC(=O)c1cc(Cl)c(N)cc1OC`, the cell viability (compound concentration: 3 uM) came out at 108%.

On to `Cc1ccc2c(c1)c1c3n2CCNC3CCC1` (centres undefined) [Pirlindole mesylate], for which, under “compound concentration: 3 uM”, the cell viability came out at 85.7%.

Consider `CC(=O)N[C@@H](Cc1c[nH]c2ccccc12)C(=O)OCc1cc(C(F)(F)F)cc(C(F)(F)F)c1`, for which the cell viability (compound concentration: 3 uM) was 96.1%.

For `NC/C=C/C(=O)O` [(E)-4-amino-2-butenoic acid], the cell viability (compound concentration: 3 uM) amounted to 111%.

In the case of `CCN(CC)CCOC(=O)c1cc(Cl)c(N)cc1OC` [SDZ-205,557 hydrochloride], the cell viability (compound concentration: 3 uM) came out at 111%.

In the case of `C=C1/C(=C\C=C2/CCC[C@]3(C)[C@@H]([C@H](C)CCCC(C)C)CC[C@@H]23)C[C@@H](O)C[C@@H]1O` [Alfacalcidol], the cell viability (compound concentration: 3 uM) is 110 ± 17%.

As to `CCC[C@@H]1C[C@@H](C(=O)N[C@@H]([C@H]2O[C@H](SC)[C@H](O)[C@@H](O)[C@H]2O)[C@H](C)Cl)N(C)C1` [Clindamycin hydrochloride], under “compound concentration: 3 uM”, the cell viability was 97.2%.

Consider `CCC[C@@H]1C[C@@H](C(=O)N[C@@H]([C@H]2O[C@H](SC)[C@H](O)[C@@H](O)[C@H]2O)[C@H](C)Cl)N(C)C1` [Clindamycin], for which the cell viability (compound concentration: 3 uM) is 119 ± 14%.

`CCC[C@@H]1C[C@@H](C(=O)N[C@@H]([C@H]2O[C@H](SC)[C@H](O)[C@@H](O)[C@H]2O)[C@H](C)Cl)N(C)C1`: the cell viability (compound concentration: 3 uM) stood at 101.7 ± 0.81%.

As to `O=C(O)C1OC(O)C(O)C(O)C1O` (centres undefined), the cell viability under setting [1] was determined as 96.8%.

In the case of `O=C(O)CCNC(=O)c1ccccc1`, the cell viability (compound concentration: 3 uM) is 109%.

With `O=C(N[C@H](CO)[C@H](O)c1ccc([N+](=O)[O-])cc1)C(Cl)Cl` [Chloramphenicol], the cell viability is, setting by setting: under setting [1], 99.9%; (compound concentration: 3 uM) 103 ± 5%.

`O=C(N[C@H](CO)[C@H](O)c1ccc([N+](=O)[O-])cc1)C(Cl)Cl`: under “compound concentration: 3 uM”, the cell viability amounted to 106 ± 9%.

Consider `C[n+]1c2cc(N)ccc2cc2ccc(N)cc21`, for which the cell viability (compound concentration: 3 uM) came to 83.7 ± 23%.

Turning to `CN1CCC[C@@H]1Cc1c[nH]c2ccc(CCS(=O)(=O)c3ccccc3)cc12`, for the setting “compound concentration: 3 uM”, the cell viability was 96.4%.

Regarding `CC(C)[N+](C)(CCOC(=O)C1c2ccccc2Oc2ccccc21)C(C)C` [Propantheline bromide], where the note is “compound concentration: 3 uM”, the cell viability stood at 105 ± 1.1%.

`CC(C)[N+](C)(CCOC(=O)C1c2ccccc2Oc2ccccc21)C(C)C`: under “compound concentration: 3 uM”, the cell viability was found to be 101%.

On to `CN(C)CCC=C1c2ccccc2COc2ccccc21`, for which the cell viability (compound concentration: 3 uM) came to 98.5%.

As for `CN(C)CCC=C1c2ccccc2COc2ccccc21` [Doxepin hydrochloride], the cell viability (compound concentration: 3 uM) amounted to 106 ± 5.6%.

Turning to `CN(C)CCC=C1c2ccccc2COc2ccccc21` [Doxepin], under “compound concentration: 3 uM”, the cell viability came out at 102%.

Take `O=C(O)Cc1c[nH]c2ccc(O)cc12` [5-Hydroxyindolacetic acid]: for the setting “compound concentration: 3 uM”, the cell viability turned out to be 102%.

Regarding `CCN(c1nc(N)c(C(=O)NC(=N)N)nc1Cl)C(C)C` [5-(N-Ethyl-N-isopropyl)amiloride], the cell viability (compound concentration: 3 uM) was 97.5%.

`OCc1cccnc1`: the cell viability (compound concentration: 3 uM) was 101% and 97%.

Turning to `COc1ccccc1Oc1c(NS(=O)(=O)c2ccc(C(C)(C)C)cc2)nc(-c2ncccn2)nc1OCCO` [Bosentan], the cell viability (compound concentration: 3 uM) stood at 106 ± 9.8%.

Regarding `Nc1ccccc1S(N)(=O)=O` [2-Aminobenzenesulfonamide], the cell viability (compound concentration: 3 uM) was 95.7%.

For `C[N+](C)(C)CC=O` [Betaine aldehyde chloride], the cell viability (compound concentration: 3 uM) worked out at 103%.

As for `OC[C@H]1O[C@@H](n2cnc3c(NC4CCCC4)ncnc32)[C@H](O)[C@@H]1O` [N6-Cyclopentyladenosine], the cell viability (compound concentration: 3 uM) was determined as 103%.

On to `O=c1cc(-c2ccc(O)cc2O)oc2ccccc12`, for which the cell viability under setting [1] amounted to 83.1%.

Regarding `CCCn1c(=O)[nH]c(=O)c2[nH]cnc21` [3-n-Propylxanthine], for the setting “compound concentration: 3 uM”, the cell viability turned out to be 98.4%.

Take `O=C(O)c1cn(C2CC2)c2cc(N3CCNCC3)c(F)cc2c1=O` [Ciprofloxacin hydrochloride]: the cell viability (compound concentration: 3 uM) is 102%.

For the compound `O=C(O)c1cn(C2CC2)c2cc(N3CCNCC3)c(F)cc2c1=O` [Ciprofloxacin], the cell viability (compound concentration: 3 uM) amounted to 92.3%.

With `O=C(O)c1cn(C2CC2)c2cc(N3CCNCC3)c(F)cc2c1=O`, under “compound concentration: 3 uM”, the cell viability amounted to 118 ± 23%.

As to `O[C@H]1CCN2Cc3ccccc3N=C12` [Peganine HCl], the cell viability under setting [1] was 93.1%.

Consider `COc1ccc(-c2cc(=S)ss2)cc1` [Anethole-trithione], for which the cell viability (compound concentration: 3 uM) was 112 ± 3.8%.

Turning to `Cc1cc(C(C)(C)C)c(O)c(C(C)(C)C)c1`, the cell viability (compound concentration: 3 uM) stood at 114%.
